PubChem BioAssay AID1259405, NCATS, 2018

Assay: 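Silenced genes that increase secreted GFP made by CHO cells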 (primary screen)
System: Chinese hamster CHO-K1 ovary cells with stable secreted eGFP expression
Reagents: single siRNA against mouse genes, 0.8 pmol siRNA per well (2 µl of 400 nM stock)
Timing: 3 days
Read-out: 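Percent of the per-plate non-targeting control median for intracellular GFP per well by laser scanning cytometry and for cell viability by ATP luminescence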
Direction: GFP, % of control: higher = more GFP per well, higher productivity; viability (ATP), % of control: higher = more viable cells (more ATP)
Hit rule: 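Called active when intracellular GFP, relative to negative control, is at or above 120%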
This is one part, drawn at random, of about 50,000 reagents tested. About 4,000 of all reagents (8%) count as active. 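Mouse siRNA library applied to hamster cells; one well for each siRNA.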 Reagents against one gene are numbered here.

Knock-down of Serpinb3c #1 gave: GFP, % of control 83.3; viability (ATP), % of control 51.5; inactive.
Serpinb3c #2 showed GFP, % of control 62.3; viability (ATP), % of control 77.3; inactive.
Depletion of Serpinb3c #3 gave: GFP, % of control 118; viability (ATP), % of control 108; inactive.
Silencing of Ctcf #1 came out at: GFP, % of control 85.7; viability (ATP), % of control 69.5; inactive.
Against Ctcf #2, the values are GFP, % of control 86.9; viability (ATP), % of control 80.9; inactive.
Against Cyp2f2 #1 the deposit lists GFP, % of control 54.5; viability (ATP), % of control 72.8; inactive.
Cyp2f2 #2 showed GFP, % of control 154; viability (ATP), % of control 110; active.
After knock-down of Cyp2f2 #3 the results were GFP, % of control 120; viability (ATP), % of control 81.3; inactive.
Gabrq #1 showed GFP, % of control 107; viability (ATP), % of control 130; inactive.
Gabrq #2 scored GFP, % of control 52.1; viability (ATP), % of control 58.8; inactive.
Silencing of Gabrq #3 gave: GFP, % of control 33.2; viability (ATP), % of control 38.7; inactive.
For Sugct #1 the deposit lists GFP, % of control 55.2; viability (ATP), % of control 44.9; inactive.
Sugct #2 scored GFP, % of control 49.3; viability (ATP), % of control 76.3; inactive.
Silencing of Sugct #3 came out at: GFP, % of control 42.9; viability (ATP), % of control 77.6; inactive.
Against Areg #1 the deposit lists GFP, % of control 134; viability (ATP), % of control 101; active.
Areg #2 showed GFP, % of control 51.6; viability (ATP), % of control 62.4; inactive.
Depletion of Or6c3b #1 gave: GFP, % of control 15.3; viability (ATP), % of control 22.2; inactive.
Against Or6c3b #2, the values are GFP, % of control 80.3; viability (ATP), % of control 63; inactive.
For Or6c3b #3, the entry reads GFP, % of control 71.3; viability (ATP), % of control 91.6; inactive.
Against Depdc1b #1, the values are GFP, % of control 98.8; viability (ATP), % of control 58.6; inactive.
Depletion of Depdc1b #2 resulted in: GFP, % of control 64.1; viability (ATP), % of control 76.7; inactive.
Silencing of Depdc1b #3 gave: GFP, % of control 63; viability (ATP), % of control 73.1; inactive.
Against Coq2 #1, the values are GFP, % of control 76.7; viability (ATP), % of control 92.4; inactive.
Against Coq2 #2, the values are GFP, % of control 81.4; viability (ATP), % of control 69.8; inactive.
Depletion of Coq2 #3 came out at: GFP, % of control 65.9; viability (ATP), % of control 54.9; inactive.
With knock-down of Vegfa #1, the record shows GFP, % of control 64.6; viability (ATP), % of control 64.5; inactive.
With knock-down of Vegfa #2, the screen gave GFP, % of control 51.4; viability (ATP), % of control 35; inactive.
After knock-down of Vegfa #3 the results were GFP, % of control 76.6; viability (ATP), % of control 51.7; inactive.
Tnnt2 #1 showed GFP, % of control 67.5; viability (ATP), % of control 61.5; inactive.
Against Tnnt2 #2 the deposit lists GFP, % of control 45.7; viability (ATP), % of control 42.8; inactive.
Silencing of Tnnt2 #3 came out at: GFP, % of control 36.1; viability (ATP), % of control 47.9; inactive.
Against Polm #1, the values are GFP, % of control 67.1; viability (ATP), % of control 99.3; inactive.
After knock-down of Polm #2 the results were GFP, % of control 60.5; viability (ATP), % of control 79.7; inactive.
After knock-down of Polm #3, the record shows GFP, % of control 53.9; viability (ATP), % of control 67.3; inactive.
Ripk4 scored GFP, % of control 38.7; viability (ATP), % of control 36.4; inactive.
Against Dmrta1 #1, the entry reads GFP, % of control 35; viability (ATP), % of control 50.5; inactive.
For Dmrta1 #2, the entry reads GFP, % of control 71; viability (ATP), % of control 80.8; inactive.
Dmrta1 #3 scored GFP, % of control 53.1; viability (ATP), % of control 38.2; inactive.
Against Abhd6 #1 the deposit lists GFP, % of control 80.8; viability (ATP), % of control 97.4; inactive.
After knock-down of Abhd6 #2, the record shows GFP, % of control 105; viability (ATP), % of control 86.9; inactive.
For Abhd6 #3, the values are GFP, % of control 125; viability (ATP), % of control 117; active.

In a second layout: entries from further up.
{"target gene":"Serpinb3c","reagent no.":3,"GFP, % of control":118,"viability (ATP), % of control":108,"activity call":"inactive"}
{"target gene":"Ctcf","reagent no.":1,"GFP, % of control":85.7,"viability (ATP), % of control":69.5,"activity call":"inactive"}
